Data reported in PMC10158250.
For at least one entry, the source does not settle the construct or the ends of the probe. A negative result means that nothing was seen under these conditions.

tested on: BpERF2 (MBP-ERF2); experiment: EMSA; details: Chemiluminescent EMSA kit (Beyotime); binding buffer, pH and temperature not stated; self-competitor at 20, 50, 100-fold excess; recombinant protein; protein details: MBP (N-terminal, pMAL-5); label: biotin

| Sequence | binding result |
| --- | --- |
| GGCGGCCAGGAGATTCAGGAGATTCAGGAGAG / GCGGCTCTCCTGAATCTCCTGAATCTCCTGG [Motif2 probe] | binds |
| GGCGGCGGGCGGATTGGGCGGATTGGGCGGAG / GCGGCTCCGCCCAATCCGCCCAATCCGCCCG [Motif7 probe] | binds |
| GGCGGCGCCCACCTTGCCCACCTTGCCCACCG / GCGGCGGTGGGCAAGGTGGGCAAGGTGGGCG [Motif4 probe] | binds |
| GGCGGCCCCTCCCTTCCCTCCCTTCCCTCCCG / GCGGCGGGAGGGAAGGGAGGGAAGGGAGGGG [Motif1 probe] | binds |
| GGCGGCAAAAAAATTAAAAAAATTAAAAAAAG / GCGGCTTTTTTTAATTTTTTTAATTTTTTTG [mutant probe] | no binding |
| GGCGGCCCCAGCCTTCCCAGCCTTCCCAGCCG / GCGGCGGCTGGGAAGGCTGGGAAGGCTGGGG [Motif6 probe] | binds |
| GGCGGCACCACAGTTACCACAGTTACCACAGG / GCGGCCTGTGGTAACTGTGGTAACTGTGGTG [Motif5 probe] | binds |
| GGCGGCGCGGCGCTTGCGGCGCTTGCGGCGCG / GCGGCGCGCCGCAAGCGCCGCAAGCGCCGCG [Motif3 probe] | binds |
| GGCGGCACAGAGTTACAGAGTTACAGAGG / GCGGCCTCTGTAACTCTGTAACTCTGTG [Motif8 probe] | binds |
